# PubChem BioAssay AID1259405, NCATS, 2018
# Test: 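Knock-downs that lift recombinant protein yield in hamster ovary cells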 (primary screen)
# System: Chinese hamster CHO-K1 ovary cells with stable secreted eGFP expression
# Reagent: single siRNA against mouse genes, 0.8 pmol siRNA per well (2 µl of 400 nM stock)
# Time to read-out: 3 days
# Measurement: 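Per-well intracellular GFP measured by laser scanning cytometry, plus viability from ATP luminescence, each relative to plate median of non-targeting control wells, in %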
# Scale: GFP, % of control: higher = more GFP per well, higher productivity; viability (ATP), % of control: higher = more viable cells (more ATP)
# Active means: 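a knock-down is called active if GFP reaches 120% or more of non-targeting control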
# This is an unselected part of about 50,000 reagents. About 4,000 of all reagents (8%) were called active. 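Mouse siRNA library applied to hamster cells; one well for each siRNA.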 The numbers tell different reagents against one gene apart.
"GFP, % of control","viability (ATP), % of control",activity call,gene,siRNA no.
54.2,52.5,inactive,Mcmdc2 (minichromosome maintenance domain containing 2),1
68.8,92.3,inactive,Mcmdc2 (minichromosome maintenance domain containing 2),2
91.6,107,inactive,Mcmdc2 (minichromosome maintenance domain containing 2),3
59.8,71.5,inactive,Cpne9 (copine family member IX),1
52.2,43.6,inactive,Cpne9 (copine family member IX),2
80.8,78,inactive,Cpne9 (copine family member IX),3
49.7,49.8,inactive,Or4c127 (olfactory receptor family 4 subfamily C member 127),1
184,65.7,active,Or4c127 (olfactory receptor family 4 subfamily C member 127),2
83.9,85.6,inactive,Or4c127 (olfactory receptor family 4 subfamily C member 127),3
102,120,inactive,Vps18 (VPS18 CORVET/HOPS core subunit),1
124,107,active,Vps18 (VPS18 CORVET/HOPS core subunit),2
31.2,38.5,inactive,"Selplg (selectin, platelet (p-selectin) ligand)",1
61.4,99.8,inactive,"Selplg (selectin, platelet (p-selectin) ligand)",2
156,76.1,active,"Selplg (selectin, platelet (p-selectin) ligand)",3
116,128,inactive,"Hbb-bh1 (hemoglobin Z, beta-like embryonic chain)",1
136,114,active,"Hbb-bh1 (hemoglobin Z, beta-like embryonic chain)",2
70.7,45.4,inactive,"Hbb-bh1 (hemoglobin Z, beta-like embryonic chain)",3
128,86.9,active,Cep95 (centrosomal protein 95),1
57.4,51.9,inactive,Cep95 (centrosomal protein 95),2
62.2,86.6,inactive,Cep95 (centrosomal protein 95),3
101,96.5,inactive,Adam12 (ADAM metallopeptidase domain 12),1
94.5,63,inactive,Adam12 (ADAM metallopeptidase domain 12),2
72.7,79,inactive,Adam12 (ADAM metallopeptidase domain 12),3
79.3,78.9,inactive,Gkn1 (gastrokine 1),1
57,78.5,inactive,Gkn1 (gastrokine 1),2
91.4,71.6,inactive,Gkn1 (gastrokine 1),3
57.8,35.7,inactive,Efnb3 (ephrin B3),1
44.5,63.3,inactive,Efnb3 (ephrin B3),2
49.6,54.3,inactive,Efnb3 (ephrin B3),3
53.7,41.6,inactive,"Gorab (golgin, RAB6-interacting)",1
95.4,119,inactive,"Gorab (golgin, RAB6-interacting)",2
45.6,37.1,inactive,"Gorab (golgin, RAB6-interacting)",3
101,58.3,inactive,Plekhf1 (pleckstrin homology and FYVE domain containing 1),1
81.7,69.4,inactive,Plekhf1 (pleckstrin homology and FYVE domain containing 1),2
86.3,51.4,inactive,Plekhf1 (pleckstrin homology and FYVE domain containing 1),3
154,122,active,Lgr5 (leucine rich repeat containing G protein coupled receptor 5),1
42.3,45.8,inactive,Lgr5 (leucine rich repeat containing G protein coupled receptor 5),2
85,71.2,inactive,Lgr5 (leucine rich repeat containing G protein coupled receptor 5),3
169,75.5,active,Ptpra (protein tyrosine phosphatase receptor type A),1
79.8,108,inactive,Ptpra (protein tyrosine phosphatase receptor type A),2
142,93.8,active,Ptpra (protein tyrosine phosphatase receptor type A),3
117,85.4,inactive,Rabepk (Rab9 effector protein with kelch motifs),1
79.3,60.1,inactive,Rabepk (Rab9 effector protein with kelch motifs),2
31.1,55.4,inactive,Rabepk (Rab9 effector protein with kelch motifs),3
79.7,49.7,inactive,Magel2 (MAGE family member L2),1
76.1,92.8,inactive,Magel2 (MAGE family member L2),2
81.5,68.4,inactive,Magel2 (MAGE family member L2),3
94.1,85.5,inactive,Nlgn1 (neuroligin 1),1
72.7,79.5,inactive,Nlgn1 (neuroligin 1),2
95.7,125,inactive,Nlgn1 (neuroligin 1),3
78.6,74.7,inactive,Cdk6 (cyclin dependent kinase 6),1
88.8,93.4,inactive,S100a4 (S100 calcium binding protein A4),1
76.6,81.5,inactive,S100a4 (S100 calcium binding protein A4),2
64.4,71.8,inactive,Gas2 (growth arrest specific 2),1
41.6,38.7,inactive,Gas2 (growth arrest specific 2),2
111,109,inactive,Gas2 (growth arrest specific 2),3
31.5,82.6,inactive,"Haus3 (HAUS augmin-like complex, subunit 3)",1
86.5,52.5,inactive,"Haus3 (HAUS augmin-like complex, subunit 3)",2
180,131,active,"Haus3 (HAUS augmin-like complex, subunit 3)",3
98.9,109,inactive,"Haus3 (HAUS augmin-like complex, subunit 3)",4
84.5,65.7,inactive,"Haus3 (HAUS augmin-like complex, subunit 3)",5
54.4,81,inactive,"Haus3 (HAUS augmin-like complex, subunit 3)",6
73,41.4,inactive,Meig1 (meiosis expressed gene 1),1
95.7,89.1,inactive,Meig1 (meiosis expressed gene 1),2
120,70.8,inactive,Meig1 (meiosis expressed gene 1),3
48.2,54.7,inactive,Dennd4b (DENN domain containing 4B),1
98.4,110,inactive,Dennd4b (DENN domain containing 4B),2
121,144,active,Dennd4b (DENN domain containing 4B),3
105,143,inactive,"Atp1a3 (ATPase, Na+/K+ transporting, alpha 3 polypeptide)",1
59.8,68.7,inactive,"Atp1a3 (ATPase, Na+/K+ transporting, alpha 3 polypeptide)",2
64,72.8,inactive,"Atp1a3 (ATPase, Na+/K+ transporting, alpha 3 polypeptide)",3
101,49.3,inactive,Ctdspl2 (CTD small phosphatase like 2),1
91.4,107,inactive,Ctdspl2 (CTD small phosphatase like 2),2
57.9,68.9,inactive,Ctdspl2 (CTD small phosphatase like 2),3
67.7,62,inactive,Fut8 (fucosyltransferase 8),1
55.5,62.1,inactive,Fut8 (fucosyltransferase 8),2
120,78.7,active,Fut8 (fucosyltransferase 8),3
31.3,48.2,inactive,Ptbp2 (polypyrimidine tract binding protein 2),1
101,92.6,inactive,Ptbp2 (polypyrimidine tract binding protein 2),2
108,106,inactive,Plxna3 (plexin A3),1
56,61,inactive,Or2ag2b (olfactory receptor family 2 subfamily AG member 2B),1
72.5,63.9,inactive,Or2ag2b (olfactory receptor family 2 subfamily AG member 2B),2
101,80,inactive,Or2ag2b (olfactory receptor family 2 subfamily AG member 2B),3
75.5,65.7,inactive,Atosa (atos homolog A),1
90.5,95.5,inactive,Atosa (atos homolog A),2
79.4,87.4,inactive,Atosa (atos homolog A),3
71.3,89.5,inactive,1110006O24Rik (RIKEN cDNA 1110006O24 gene),1
41.6,60.3,inactive,1110006O24Rik (RIKEN cDNA 1110006O24 gene),2
145,67.6,active,1110006O24Rik (RIKEN cDNA 1110006O24 gene),3
33.1,57.9,inactive,Ccdc149 (coiled-coil domain containing 149),1
83.7,61.5,inactive,Ccdc149 (coiled-coil domain containing 149),2
90.9,88,inactive,Ccdc149 (coiled-coil domain containing 149),3
88.2,65.1,inactive,Pvt1 (Pvt1 oncogene),1
82.1,58,inactive,Pvt1 (Pvt1 oncogene),2
101,71.3,inactive,Pvt1 (Pvt1 oncogene),3
104,78.2,inactive,Hgh1 (HGH1 cochaparone),1
97.3,79.9,inactive,Hgh1 (HGH1 cochaparone),2
113,76.7,inactive,Hgh1 (HGH1 cochaparone),3
76.5,57.1,inactive,Lrrc57 (leucine rich repeat containing 57),1
96.2,72.9,inactive,Lrrc57 (leucine rich repeat containing 57),2
73.8,97.2,inactive,Lrrc57 (leucine rich repeat containing 57),3
83.4,84.6,inactive,Irs3 (insulin receptor substrate 3),1
34.9,19.5,inactive,Irs3 (insulin receptor substrate 3),2
177,53.3,active,Irs3 (insulin receptor substrate 3),3
106,60.3,inactive,"Clec4g (C-type lectin domain family 4, member g)",1
40.3,62.4,inactive,"Clec4g (C-type lectin domain family 4, member g)",2
90.5,50,inactive,"Clec4g (C-type lectin domain family 4, member g)",3

Called active, among the entries above:
"GFP, % of control","viability (ATP), % of control",activity call,gene,siRNA no.
184,65.7,active,Or4c127 (olfactory receptor family 4 subfamily C member 127),2
124,107,active,Vps18 (VPS18 CORVET/HOPS core subunit),2
156,76.1,active,"Selplg (selectin, platelet (p-selectin) ligand)",3
136,114,active,"Hbb-bh1 (hemoglobin Z, beta-like embryonic chain)",2
128,86.9,active,Cep95 (centrosomal protein 95),1
154,122,active,Lgr5 (leucine rich repeat containing G protein coupled receptor 5),1
169,75.5,active,Ptpra (protein tyrosine phosphatase receptor type A),1
142,93.8,active,Ptpra (protein tyrosine phosphatase receptor type A),3
180,131,active,"Haus3 (HAUS augmin-like complex, subunit 3)",3
121,144,active,Dennd4b (DENN domain containing 4B),3
120,78.7,active,Fut8 (fucosyltransferase 8),3
145,67.6,active,1110006O24Rik (RIKEN cDNA 1110006O24 gene),3
177,53.3,active,Irs3 (insulin receptor substrate 3),3
